The other results are listed elsewhere or left out. Residues, ends and D or L forms follow the SMILES beside them. *: point of attachment. Cbz = O=C(OCc1ccccc1)*
How the values were obtained:
Experiment in all cases: log2 fold change, soluble protein after heating vs DMSO (PISA); higher = thermal stabilisation; K562 cells, 10 uM, 30 min; active = over 0.2 and 3.5 SD of the protein, either way, in both replicates (recomputed)
erlotinib = compound: C#Cc1cccc(Nc2ncnc3cc(OCCOC)c(OCCOC)cc23)c1 [erlotinib]
How it was run: (§1)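 For each measurement, 10 μM compound was applied for 30 min to K562 cells at 2×10^6 cells/mL. Aliquots were heated for 3 min across 48°C-58°C, pooled, and extracted in PBS with 0.5% NP-40 at 4°C; the supernatant after 21,000xg for 90 min was soluble protein. This was quantified by TMTpro 16plex LC-MS/MS with channel sums equalised, and thermal stability was reported relative to control samples from duplicates, on a log2 fold-change scale.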

Protein sequences, listed by entry. Tags and fused reporters are not part of them. Lines headed by an entry give the natural chain unless they say otherwise; changes in a name come on top.
UniProt Q96T23: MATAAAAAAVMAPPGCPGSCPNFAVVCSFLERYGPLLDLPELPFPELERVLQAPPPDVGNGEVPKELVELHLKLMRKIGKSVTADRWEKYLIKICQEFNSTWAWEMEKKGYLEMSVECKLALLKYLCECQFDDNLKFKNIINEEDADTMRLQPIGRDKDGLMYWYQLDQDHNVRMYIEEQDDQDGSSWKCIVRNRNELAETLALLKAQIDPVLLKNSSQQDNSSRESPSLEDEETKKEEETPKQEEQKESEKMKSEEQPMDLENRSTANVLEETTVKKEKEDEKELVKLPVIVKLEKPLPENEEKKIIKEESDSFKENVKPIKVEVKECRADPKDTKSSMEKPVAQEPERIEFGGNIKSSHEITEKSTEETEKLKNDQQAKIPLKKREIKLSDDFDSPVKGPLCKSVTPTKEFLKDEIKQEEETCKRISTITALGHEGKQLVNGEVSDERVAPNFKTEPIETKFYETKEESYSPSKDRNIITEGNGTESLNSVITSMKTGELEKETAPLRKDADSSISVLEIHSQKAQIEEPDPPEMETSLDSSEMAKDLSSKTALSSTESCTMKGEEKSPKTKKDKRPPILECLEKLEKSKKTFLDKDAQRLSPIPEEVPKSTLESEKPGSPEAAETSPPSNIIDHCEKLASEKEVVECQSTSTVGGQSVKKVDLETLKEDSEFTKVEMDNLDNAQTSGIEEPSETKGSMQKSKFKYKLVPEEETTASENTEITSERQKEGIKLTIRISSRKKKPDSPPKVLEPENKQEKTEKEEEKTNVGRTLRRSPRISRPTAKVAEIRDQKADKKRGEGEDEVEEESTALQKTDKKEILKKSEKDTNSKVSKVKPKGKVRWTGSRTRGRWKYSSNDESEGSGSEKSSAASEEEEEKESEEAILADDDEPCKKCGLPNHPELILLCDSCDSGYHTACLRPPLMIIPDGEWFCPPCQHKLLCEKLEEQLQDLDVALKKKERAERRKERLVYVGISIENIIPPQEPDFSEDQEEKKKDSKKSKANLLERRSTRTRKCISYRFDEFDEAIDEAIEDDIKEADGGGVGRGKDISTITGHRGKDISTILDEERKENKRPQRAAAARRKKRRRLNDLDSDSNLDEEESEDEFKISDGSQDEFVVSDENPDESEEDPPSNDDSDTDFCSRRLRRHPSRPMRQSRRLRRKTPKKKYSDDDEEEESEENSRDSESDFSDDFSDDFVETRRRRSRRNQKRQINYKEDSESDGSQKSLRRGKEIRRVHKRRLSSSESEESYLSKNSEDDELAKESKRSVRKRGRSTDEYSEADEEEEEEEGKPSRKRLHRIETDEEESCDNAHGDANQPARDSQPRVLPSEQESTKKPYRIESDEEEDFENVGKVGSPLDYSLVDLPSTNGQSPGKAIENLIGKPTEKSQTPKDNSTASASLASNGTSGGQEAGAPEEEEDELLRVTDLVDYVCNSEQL
UniProt Q9Y6B6: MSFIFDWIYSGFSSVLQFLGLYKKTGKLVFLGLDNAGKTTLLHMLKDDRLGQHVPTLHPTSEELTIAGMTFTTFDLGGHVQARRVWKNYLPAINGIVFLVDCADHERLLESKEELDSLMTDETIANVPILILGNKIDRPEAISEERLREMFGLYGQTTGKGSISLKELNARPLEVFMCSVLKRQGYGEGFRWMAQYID
UniProt O15027: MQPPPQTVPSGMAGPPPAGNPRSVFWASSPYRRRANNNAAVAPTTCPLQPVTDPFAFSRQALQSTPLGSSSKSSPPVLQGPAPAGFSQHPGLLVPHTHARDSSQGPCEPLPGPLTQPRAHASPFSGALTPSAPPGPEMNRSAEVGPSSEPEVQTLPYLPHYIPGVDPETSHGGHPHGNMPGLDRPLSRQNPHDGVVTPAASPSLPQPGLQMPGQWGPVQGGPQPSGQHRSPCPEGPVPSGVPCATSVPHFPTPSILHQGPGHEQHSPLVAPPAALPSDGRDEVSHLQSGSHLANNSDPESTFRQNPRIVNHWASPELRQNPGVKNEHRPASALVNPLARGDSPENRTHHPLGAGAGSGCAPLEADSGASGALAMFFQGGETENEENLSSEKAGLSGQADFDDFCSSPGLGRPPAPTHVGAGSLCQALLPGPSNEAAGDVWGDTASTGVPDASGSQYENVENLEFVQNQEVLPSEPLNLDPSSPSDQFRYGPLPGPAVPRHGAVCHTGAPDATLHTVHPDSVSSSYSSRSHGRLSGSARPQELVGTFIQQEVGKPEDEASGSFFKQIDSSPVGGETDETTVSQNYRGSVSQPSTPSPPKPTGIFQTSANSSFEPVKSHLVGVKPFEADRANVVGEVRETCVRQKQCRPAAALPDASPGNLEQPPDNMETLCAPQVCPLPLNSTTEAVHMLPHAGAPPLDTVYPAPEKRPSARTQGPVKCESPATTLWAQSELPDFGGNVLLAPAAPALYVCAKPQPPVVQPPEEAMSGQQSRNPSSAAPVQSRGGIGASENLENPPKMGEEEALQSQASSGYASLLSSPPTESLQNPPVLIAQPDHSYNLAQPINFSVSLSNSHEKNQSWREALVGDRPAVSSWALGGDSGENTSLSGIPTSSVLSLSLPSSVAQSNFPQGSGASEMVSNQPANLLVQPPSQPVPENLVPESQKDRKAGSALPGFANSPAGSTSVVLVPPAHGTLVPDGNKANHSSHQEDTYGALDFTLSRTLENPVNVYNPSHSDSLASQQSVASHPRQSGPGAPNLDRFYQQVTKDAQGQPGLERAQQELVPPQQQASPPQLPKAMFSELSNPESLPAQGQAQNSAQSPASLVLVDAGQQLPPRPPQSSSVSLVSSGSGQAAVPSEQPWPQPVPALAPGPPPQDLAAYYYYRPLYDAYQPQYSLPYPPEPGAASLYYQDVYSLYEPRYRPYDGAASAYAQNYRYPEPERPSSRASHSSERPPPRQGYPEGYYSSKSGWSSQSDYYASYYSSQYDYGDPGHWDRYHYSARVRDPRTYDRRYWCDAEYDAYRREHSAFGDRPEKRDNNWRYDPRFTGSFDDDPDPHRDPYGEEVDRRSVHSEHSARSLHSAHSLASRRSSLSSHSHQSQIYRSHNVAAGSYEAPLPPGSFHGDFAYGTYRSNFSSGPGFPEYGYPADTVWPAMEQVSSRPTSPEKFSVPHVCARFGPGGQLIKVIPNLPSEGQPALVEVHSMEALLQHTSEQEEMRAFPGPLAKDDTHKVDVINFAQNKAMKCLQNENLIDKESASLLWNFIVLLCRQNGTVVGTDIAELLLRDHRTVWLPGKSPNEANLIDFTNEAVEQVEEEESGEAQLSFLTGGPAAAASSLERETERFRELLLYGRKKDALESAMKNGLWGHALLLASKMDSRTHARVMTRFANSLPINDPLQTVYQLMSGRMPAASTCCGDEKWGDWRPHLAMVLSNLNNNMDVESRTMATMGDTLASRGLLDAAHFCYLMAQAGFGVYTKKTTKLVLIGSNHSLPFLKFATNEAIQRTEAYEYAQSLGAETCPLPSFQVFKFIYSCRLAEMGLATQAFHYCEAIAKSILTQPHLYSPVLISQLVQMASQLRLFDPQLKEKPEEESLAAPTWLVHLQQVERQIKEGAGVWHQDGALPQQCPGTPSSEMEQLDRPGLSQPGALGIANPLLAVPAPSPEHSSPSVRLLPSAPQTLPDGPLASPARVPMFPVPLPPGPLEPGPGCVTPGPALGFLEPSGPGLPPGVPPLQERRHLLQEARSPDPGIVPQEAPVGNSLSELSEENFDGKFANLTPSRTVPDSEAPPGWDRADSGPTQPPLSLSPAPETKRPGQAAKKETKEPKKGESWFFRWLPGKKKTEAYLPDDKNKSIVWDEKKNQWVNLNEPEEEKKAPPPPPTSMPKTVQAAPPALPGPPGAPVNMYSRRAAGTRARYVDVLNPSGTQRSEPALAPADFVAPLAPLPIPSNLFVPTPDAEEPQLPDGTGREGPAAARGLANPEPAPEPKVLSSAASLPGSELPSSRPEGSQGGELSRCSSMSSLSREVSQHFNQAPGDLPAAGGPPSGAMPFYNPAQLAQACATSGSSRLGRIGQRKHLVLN
UniProt Q9NX18: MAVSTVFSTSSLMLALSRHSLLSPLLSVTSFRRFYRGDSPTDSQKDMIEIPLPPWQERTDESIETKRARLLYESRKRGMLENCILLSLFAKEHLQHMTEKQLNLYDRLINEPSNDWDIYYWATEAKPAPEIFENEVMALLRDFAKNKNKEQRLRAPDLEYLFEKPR
UniProt Q99590: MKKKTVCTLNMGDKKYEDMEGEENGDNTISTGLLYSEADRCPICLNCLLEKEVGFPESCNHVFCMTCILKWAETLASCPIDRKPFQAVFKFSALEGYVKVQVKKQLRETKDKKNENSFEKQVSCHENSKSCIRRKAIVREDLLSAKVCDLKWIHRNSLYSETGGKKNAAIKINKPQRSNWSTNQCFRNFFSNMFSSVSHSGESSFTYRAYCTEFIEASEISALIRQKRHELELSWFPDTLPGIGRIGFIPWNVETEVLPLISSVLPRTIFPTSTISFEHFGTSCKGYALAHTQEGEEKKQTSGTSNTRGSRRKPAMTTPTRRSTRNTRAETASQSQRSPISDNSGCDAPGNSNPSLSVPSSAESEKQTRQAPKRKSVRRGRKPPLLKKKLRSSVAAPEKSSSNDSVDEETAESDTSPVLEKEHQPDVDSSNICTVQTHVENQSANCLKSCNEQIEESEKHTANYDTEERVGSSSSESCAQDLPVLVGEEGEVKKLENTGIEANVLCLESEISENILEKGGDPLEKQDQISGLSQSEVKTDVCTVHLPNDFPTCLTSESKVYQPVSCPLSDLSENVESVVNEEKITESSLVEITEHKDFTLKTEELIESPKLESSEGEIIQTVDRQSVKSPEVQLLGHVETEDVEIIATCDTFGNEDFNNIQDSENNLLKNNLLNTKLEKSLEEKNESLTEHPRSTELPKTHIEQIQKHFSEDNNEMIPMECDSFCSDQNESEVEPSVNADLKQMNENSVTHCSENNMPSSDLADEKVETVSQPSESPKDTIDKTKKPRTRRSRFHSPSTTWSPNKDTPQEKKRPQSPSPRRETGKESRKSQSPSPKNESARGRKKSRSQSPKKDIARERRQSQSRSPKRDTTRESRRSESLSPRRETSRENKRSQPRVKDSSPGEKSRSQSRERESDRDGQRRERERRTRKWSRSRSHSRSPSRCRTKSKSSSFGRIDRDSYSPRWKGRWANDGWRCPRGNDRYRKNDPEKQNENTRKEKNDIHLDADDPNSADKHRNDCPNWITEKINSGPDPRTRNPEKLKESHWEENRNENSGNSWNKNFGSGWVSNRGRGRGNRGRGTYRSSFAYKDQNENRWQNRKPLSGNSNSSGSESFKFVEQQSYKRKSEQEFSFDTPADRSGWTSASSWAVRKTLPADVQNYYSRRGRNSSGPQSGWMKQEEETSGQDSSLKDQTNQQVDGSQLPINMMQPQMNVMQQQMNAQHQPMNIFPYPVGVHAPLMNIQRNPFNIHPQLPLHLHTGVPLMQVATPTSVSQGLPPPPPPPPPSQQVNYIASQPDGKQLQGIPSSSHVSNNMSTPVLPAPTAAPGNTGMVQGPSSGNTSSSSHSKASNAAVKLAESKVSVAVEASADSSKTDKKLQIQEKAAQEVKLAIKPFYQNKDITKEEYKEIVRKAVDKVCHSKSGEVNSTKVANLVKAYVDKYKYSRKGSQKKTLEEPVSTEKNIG
UniProt Q14151: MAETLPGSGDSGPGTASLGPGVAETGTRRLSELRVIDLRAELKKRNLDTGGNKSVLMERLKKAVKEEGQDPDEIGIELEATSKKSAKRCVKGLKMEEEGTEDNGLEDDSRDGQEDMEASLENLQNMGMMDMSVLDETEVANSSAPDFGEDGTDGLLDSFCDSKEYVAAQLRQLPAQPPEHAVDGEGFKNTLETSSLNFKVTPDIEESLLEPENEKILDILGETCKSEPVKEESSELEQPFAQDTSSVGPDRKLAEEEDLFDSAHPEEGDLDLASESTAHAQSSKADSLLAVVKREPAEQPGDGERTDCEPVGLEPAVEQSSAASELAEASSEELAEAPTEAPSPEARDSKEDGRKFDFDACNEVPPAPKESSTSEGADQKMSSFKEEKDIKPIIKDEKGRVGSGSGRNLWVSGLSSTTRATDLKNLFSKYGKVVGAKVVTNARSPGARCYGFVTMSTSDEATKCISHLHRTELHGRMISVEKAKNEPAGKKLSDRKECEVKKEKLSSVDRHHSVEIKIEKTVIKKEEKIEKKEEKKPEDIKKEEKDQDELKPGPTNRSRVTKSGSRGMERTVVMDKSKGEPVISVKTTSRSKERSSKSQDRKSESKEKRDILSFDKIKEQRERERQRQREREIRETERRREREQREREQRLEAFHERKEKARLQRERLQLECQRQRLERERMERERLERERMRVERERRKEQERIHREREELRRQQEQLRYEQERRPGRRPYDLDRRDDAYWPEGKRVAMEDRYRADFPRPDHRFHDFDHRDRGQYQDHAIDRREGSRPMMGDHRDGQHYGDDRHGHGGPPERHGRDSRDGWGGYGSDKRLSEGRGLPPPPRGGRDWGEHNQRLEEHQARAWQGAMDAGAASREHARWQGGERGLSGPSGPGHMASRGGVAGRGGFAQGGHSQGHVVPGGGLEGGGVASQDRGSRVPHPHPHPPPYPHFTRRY

[1] = compound: C/C(=N\NC(=O)C1=CC(=CC=C1)S(=O)(=O)N2CCOCC2)/C3=C(C=CC(=C3)Cl)O
How it was run: as §1

[2] = compound: C1=CC(=C(C=C1Cl)C2=NC3=NC=CN=C3C(=N2)NC4=CC=NC=C4)F
How it was run: as §1

[3] = compound: C1=CC(=CC=C1C2=NC3=C(N2)C=C(C=C3)C(=O)N)OC4=CC=C(C=C4)Cl
How it was run: as §1

[4] = compound: C1=CC2=C(C=CC(=C2)/C=C\3/C(=O)NC(=NCC4=CC=CS4)S3)N=C1
How it was run: as §1

[5] = compound: C1=CC2=NC=CN=C2C=C1/C=C/3\C(=O)NC(=O)S3
How it was run: as §1

[6] = compound: C1=CC=C(C=C1)C2=NC(=C(N2)C3=CC=NC=C3)C4=CC(=C(C=C4)Cl)O
How it was run: as §1

[7] = compound: C1=CC=C2C(=C1)C3=NNC4=CC=CC(=C43)C2=O
How it was run: as §1

[8] = compound: C1CCN(C1)C(=O)NC2=CC=CC(=C2)NC3=NC=C(C(=N3)NCCC4=CN=CN4)Br
How it was run: as §1

[9] = compound: C1CN(CCC1(CC2=CC=C(C=C2)Cl)N)C3=NC=NC4=C3C=CN4
How it was run: as §1

IRAK-1-4 Inhibitor I = compound: C1COCCN1CCN2C3=CC=CC=C3N=C2NC(=O)C4=CC(=CC=C4)[N+](=O)[O-] [IRAK-1-4 Inhibitor I]
How it was run: as §1

ibrutinib = compound: C=CC(=O)N1CCC[C@@H](n2nc(-c3ccc(Oc4ccccc4)cc3)c3c(N)ncnc32)C1 [ibrutinib]
How it was run: as §1

[10] = compound: CC(=O)c1cnc2ccc(-c3cc(Cl)c(O)c(Cl)c3)nc2c1N[C@H]1CC[C@H](CN(C)C)CC1
How it was run: as §1

ralimetinib = compound: CC(C)(C)Cn1c(N)nc2ccc(-c3[nH]c(C(C)(C)C)nc3-c3ccc(F)cc3)nc21 [ralimetinib]
How it was run: as §1

[11] = compound: CC(C)(O)CC(=O)NCCn1ccc2ncnc(Nc3ccc(Oc4cccc(C(F)(F)F)c4)c(Cl)c3)c21
How it was run: as §1

[12] = compound: CC(C)C1=C2N=C(C=C(N2N=C1)NCC3=CC=CC=C3)NCCCCCCN
How it was run: as §1

[13] = compound: CC(C)C[C@@H](C=O)NC(=O)[C@H](CC(C)C)NC(=O)[C@H](CC(C)C)NC(=O)OCc1ccccc1
How it was run: as §1

pinometostat = compound: CC(C)N(C[C@H]1O[C@@H](n2cnc3c(N)ncnc32)[C@H](O)[C@@H]1O)[C@H]1C[C@@H](CCc2nc3cc(C(C)(C)C)ccc3[nH]2)C1 [pinometostat]
How it was run: as §1

[14] = compound: CC1=C(C(CC(=O)N1)C2=CC=C(C=C2)C(F)(F)F)C(=O)NC3=C(C=C4C(=C3)C=NN4)F
How it was run: as §1

[15] = compound: CC1=C(C2=C(C=C1)C(=O)C3=CC=CC=C3N2CCCN)C
How it was run: as §1

Target	log2 fold change (erlotinib)	log2 fold change [1]	log2 fold change [2]	log2 fold change [3]	log2 fold change [4]	log2 fold change [5]	log2 fold change [6]	log2 fold change [7]	log2 fold change [8]	log2 fold change [9]	log2 fold change (IRAK-1-4 Inhibitor I)	log2 fold change (ibrutinib)	log2 fold change [10]	log2 fold change (ralimetinib)	log2 fold change [11]	log2 fold change [12]	log2 fold change [13]	log2 fold change (pinometostat)	log2 fold change [14]	log2 fold change [15]
SCP2 (UniProt P22307)	inactive: 0.016	inactive: 0.022	inactive: 0.034	inactive: -0.011	inactive: 0.026	inactive: 0.016	inactive: -0.053	inactive: 0.019	inactive: 0.007	inactive: 0.018	inactive: -0.007	inactive: -0.019	inactive: -0.046	inactive: -0.065	inactive: -0.018	inactive: 0.016	inactive: 0.003	inactive: -0.067	inactive: -0.009	inactive: 0.016
RSF1 (UniProt Q96T23)	inactive: 0.034	inactive: 0.152	inactive: 0.031	inactive: 0.126	inactive: 0.039	inactive: 0.012	inactive: 0.089	inactive: -0.057	inactive: 0.01	inactive: 0.006	inactive: -0.188	inactive: -0.054	inactive: 0.043	inactive: 0.019	inactive: -0.175	inactive: -0.114	inactive: -0.058	inactive: -0.123	–	active: -1.48
RSL1D1 (UniProt O76021)	inactive: -0.115	inactive: -0.156	inactive: -0.504	inactive: 0.073	inactive: -0.054	inactive: 0.057	inactive: -0.141	inactive: -0.086	inactive: 0.016	inactive: -0.193	inactive: -0.071	inactive: -0.011	inactive: 0.22	inactive: 0.105	inactive: 0.212	inactive: 0.538	inactive: 0.076	inactive: 0.393	–	inactive: -0.299
SAR1B (UniProt Q9Y6B6)	inactive: -0.035	inactive: 0.009	inactive: 0.098	inactive: -0.011	inactive: 0.004	inactive: 0.005	inactive: -0.015	inactive: 0.018	inactive: -0.013	inactive: -0.005	inactive: 0.012	inactive: 0.006	inactive: -0.031	inactive: -0.077	inactive: -0.065	inactive: 0.029	inactive: -0.03	inactive: -0.033	inactive: -0.092	inactive: 0.162
SCAMP2 (UniProt H3BUB6)	inactive: 0.182	inactive: -0.331	inactive: -0.143	inactive: 0.039	inactive: 0.372	inactive: -0.163	inactive: -0.281	inactive: -0.143	inactive: 0.218	inactive: -0.003	inactive: 0.078	inactive: 0.103	inactive: -0.171	inactive: -0.278	inactive: 0.102	inactive: -0.055	inactive: 0.192	inactive: 0.053	–	inactive: 0.059
SEC16A isoform 5 (UniProt O15027)	inactive: 0.126	inactive: -0.143	inactive: -0.064	inactive: 0.015	inactive: 0.153	inactive: -0.018	inactive: 0.044	inactive: 0.069	inactive: 0.06	inactive: 0.017	inactive: -0.136	inactive: -0.062	inactive: -0.069	inactive: 0.172	inactive: -0.177	active: -0.282	inactive: 0.046	inactive: 0.097	–	inactive: 0.025
RSPRY1 (UniProt Q96DX4)	inactive: 0.028	inactive: 0.079	inactive: 0.016	inactive: 0.041	inactive: 0.017	inactive: -0.042	inactive: -0.006	inactive: -0.026	inactive: -0.014	inactive: 0.033	inactive: 0.018	inactive: 0.027	inactive: 0.02	inactive: -0.019	inactive: -0.036	inactive: 0	inactive: 0.079	inactive: -0.048	–	inactive: -0.066
SDHAF2 (UniProt Q9NX18)	inactive: -0.021	active: 0.304	inactive: 0.083	inactive: 0.018	inactive: -0.102	inactive: 0.051	inactive: -0.035	inactive: 0.114	inactive: 0.068	inactive: -0.091	inactive: 0.013	inactive: -0.004	inactive: 0.124	inactive: -0.044	inactive: -0.011	inactive: -0.042	inactive: 0.084	inactive: -0.014	–	inactive: -0.01
RTF2 (UniProt Q9BY42)	inactive: 0.026	inactive: 0.063	inactive: 0.035	inactive: -0.049	inactive: -0.049	inactive: -0.023	inactive: -0.035	inactive: -0.02	inactive: -0.074	inactive: 0.045	inactive: 0	inactive: -0.096	inactive: -0.017	inactive: -0.022	inactive: 0.032	inactive: 0.164	inactive: 0.098	inactive: -0.059	–	inactive: -0.054
SCO2 (UniProt O43819)	inactive: 0.092	inactive: 0.012	inactive: 0.055	inactive: 0.048	inactive: 0.243	inactive: -0.054	inactive: 0.017	inactive: 0.163	inactive: -0.042	inactive: 0.101	inactive: 0.02	inactive: 0.014	inactive: -0.06	inactive: 0.142	inactive: -0.154	inactive: -0.071	inactive: 0.024	inactive: 0.054	–	inactive: 0.07
SEC23IP (UniProt Q9Y6Y8)	inactive: 0.03	inactive: 0.022	inactive: -0.013	inactive: -0.037	inactive: 0.028	inactive: 0.229	inactive: -0.023	inactive: -0.027	inactive: -0.008	inactive: -0.061	inactive: -0.007	inactive: -0.023	inactive: -0.048	inactive: -0.004	inactive: -0.119	active: -0.252	inactive: 0.006	inactive: 0.032	–	inactive: -0.011
SCAF11 (UniProt Q99590)	inactive: -0.074	inactive: -0.09	inactive: -0.16	inactive: 0.03	inactive: -0.134	inactive: -0.076	inactive: -0.014	inactive: -0.068	inactive: 0.125	inactive: -0.035	inactive: 0.076	inactive: 0.099	active: 0.714	inactive: 0.166	inactive: -0.084	inactive: 0.134	inactive: 0.213	inactive: 0.157	–	inactive: 0.112
SCYL3 isoform 2 (UniProt Q8IZE3)	inactive: 0.046	inactive: 0.055	inactive: 0.07	inactive: -0.05	inactive: 0.068	inactive: -0.024	inactive: 0.058	inactive: 0.014	inactive: 0.093	inactive: 0.123	inactive: 0.087	inactive: 0.02	inactive: -0.002	inactive: -0.043	inactive: -0.063	inactive: -0.052	inactive: -0.002	inactive: 0.054	–	inactive: -0.146
SAFB2 (UniProt Q14151)	inactive: 0.015	inactive: -0.135	inactive: -0.294	inactive: 0.071	inactive: -0.148	inactive: 0.049	inactive: 0.014	inactive: -0.015	inactive: -0.037	inactive: -0.041	inactive: -0.065	inactive: -0.012	inactive: 0.026	inactive: 0.037	inactive: 0.165	inactive: 0.042	inactive: 0.049	inactive: 0.05	–	inactive: -0.074
SART3, A0A499FI31	inactive: -0.034	inactive: 0.058	inactive: 0.102	inactive: 0.032	inactive: 0.032	inactive: 0.084	inactive: -0.004	inactive: -0.045	inactive: -0.078	inactive: -0.014	inactive: -0.021	inactive: -0.017	inactive: 0.062	inactive: 0.002	inactive: -0.033	active: -0.379	inactive: -0.051	inactive: -0.025	–	active: -0.377
SDCCAG8 (UniProt Q86SQ7)	inactive: 0.237	inactive: -0.082	–	inactive: 0.005	inactive: 0.108	–	–	inactive: 0.039	inactive: 0.061	inactive: 0.105	inactive: -0.096	–	inactive: 0.054	–	–	inactive: 0.03	–	inactive: 0.01	–	inactive: -0.039
RRP12 (UniProt Q5JTH9)	inactive: 0.074	inactive: -0.3	inactive: -0.172	inactive: 0.028	inactive: -0.04	inactive: 0.038	inactive: 0.166	inactive: 0.205	inactive: 0.079	inactive: 0.054	inactive: -0.018	inactive: -0.1	inactive: 0.201	inactive: 0.331	inactive: 0.006	inactive: 0.272	inactive: 0.243	inactive: 0.315	–	inactive: -0.107

Whole records as entered above. Order of values: log2 fold change (erlotinib) | log2 fold change [1] | log2 fold change [2] | log2 fold change [3] | log2 fold change [4] | log2 fold change [5] | log2 fold change [6] | log2 fold change [7] | log2 fold change [8] | log2 fold change [9] | log2 fold change (IRAK-1-4 Inhibitor I) | log2 fold change (ibrutinib) | log2 fold change [10] | log2 fold change (ralimetinib) | log2 fold change [11] | log2 fold change [12] | log2 fold change [13] | log2 fold change (pinometostat) | log2 fold change [14] | log2 fold change [15]
RSF1 (UniProt Q96T23) in the list: inactive: 0.034 | inactive: 0.152 | inactive: 0.031 | inactive: 0.126 | inactive: 0.039 | inactive: 0.012 | inactive: 0.089 | inactive: -0.057 | inactive: 0.01 | inactive: 0.006 | inactive: -0.188 | inactive: -0.054 | inactive: 0.043 | inactive: 0.019 | inactive: -0.175 | inactive: -0.114 | inactive: -0.058 | inactive: -0.123 | – | active: -1.48
SEC16A isoform 5 (UniProt O15027) in the list: inactive: 0.126 | inactive: -0.143 | inactive: -0.064 | inactive: 0.015 | inactive: 0.153 | inactive: -0.018 | inactive: 0.044 | inactive: 0.069 | inactive: 0.06 | inactive: 0.017 | inactive: -0.136 | inactive: -0.062 | inactive: -0.069 | inactive: 0.172 | inactive: -0.177 | active: -0.282 | inactive: 0.046 | inactive: 0.097 | – | inactive: 0.025
